Reference: PMC5026473
These are yes or no findings as the source states them, for the method shown. Binding seen in cells or lysates may run through a third protein. Some entries that bind do so weakly or less than the wild type.

Protein sequences, listed by entry. Tags and fused reporters are not part of them. Lines headed by an entry give the natural chain unless they say otherwise; changes in a name come on top. Chains listed by the source or under a name are the forms on record and can include a tag or linker.
UniProt Q03280: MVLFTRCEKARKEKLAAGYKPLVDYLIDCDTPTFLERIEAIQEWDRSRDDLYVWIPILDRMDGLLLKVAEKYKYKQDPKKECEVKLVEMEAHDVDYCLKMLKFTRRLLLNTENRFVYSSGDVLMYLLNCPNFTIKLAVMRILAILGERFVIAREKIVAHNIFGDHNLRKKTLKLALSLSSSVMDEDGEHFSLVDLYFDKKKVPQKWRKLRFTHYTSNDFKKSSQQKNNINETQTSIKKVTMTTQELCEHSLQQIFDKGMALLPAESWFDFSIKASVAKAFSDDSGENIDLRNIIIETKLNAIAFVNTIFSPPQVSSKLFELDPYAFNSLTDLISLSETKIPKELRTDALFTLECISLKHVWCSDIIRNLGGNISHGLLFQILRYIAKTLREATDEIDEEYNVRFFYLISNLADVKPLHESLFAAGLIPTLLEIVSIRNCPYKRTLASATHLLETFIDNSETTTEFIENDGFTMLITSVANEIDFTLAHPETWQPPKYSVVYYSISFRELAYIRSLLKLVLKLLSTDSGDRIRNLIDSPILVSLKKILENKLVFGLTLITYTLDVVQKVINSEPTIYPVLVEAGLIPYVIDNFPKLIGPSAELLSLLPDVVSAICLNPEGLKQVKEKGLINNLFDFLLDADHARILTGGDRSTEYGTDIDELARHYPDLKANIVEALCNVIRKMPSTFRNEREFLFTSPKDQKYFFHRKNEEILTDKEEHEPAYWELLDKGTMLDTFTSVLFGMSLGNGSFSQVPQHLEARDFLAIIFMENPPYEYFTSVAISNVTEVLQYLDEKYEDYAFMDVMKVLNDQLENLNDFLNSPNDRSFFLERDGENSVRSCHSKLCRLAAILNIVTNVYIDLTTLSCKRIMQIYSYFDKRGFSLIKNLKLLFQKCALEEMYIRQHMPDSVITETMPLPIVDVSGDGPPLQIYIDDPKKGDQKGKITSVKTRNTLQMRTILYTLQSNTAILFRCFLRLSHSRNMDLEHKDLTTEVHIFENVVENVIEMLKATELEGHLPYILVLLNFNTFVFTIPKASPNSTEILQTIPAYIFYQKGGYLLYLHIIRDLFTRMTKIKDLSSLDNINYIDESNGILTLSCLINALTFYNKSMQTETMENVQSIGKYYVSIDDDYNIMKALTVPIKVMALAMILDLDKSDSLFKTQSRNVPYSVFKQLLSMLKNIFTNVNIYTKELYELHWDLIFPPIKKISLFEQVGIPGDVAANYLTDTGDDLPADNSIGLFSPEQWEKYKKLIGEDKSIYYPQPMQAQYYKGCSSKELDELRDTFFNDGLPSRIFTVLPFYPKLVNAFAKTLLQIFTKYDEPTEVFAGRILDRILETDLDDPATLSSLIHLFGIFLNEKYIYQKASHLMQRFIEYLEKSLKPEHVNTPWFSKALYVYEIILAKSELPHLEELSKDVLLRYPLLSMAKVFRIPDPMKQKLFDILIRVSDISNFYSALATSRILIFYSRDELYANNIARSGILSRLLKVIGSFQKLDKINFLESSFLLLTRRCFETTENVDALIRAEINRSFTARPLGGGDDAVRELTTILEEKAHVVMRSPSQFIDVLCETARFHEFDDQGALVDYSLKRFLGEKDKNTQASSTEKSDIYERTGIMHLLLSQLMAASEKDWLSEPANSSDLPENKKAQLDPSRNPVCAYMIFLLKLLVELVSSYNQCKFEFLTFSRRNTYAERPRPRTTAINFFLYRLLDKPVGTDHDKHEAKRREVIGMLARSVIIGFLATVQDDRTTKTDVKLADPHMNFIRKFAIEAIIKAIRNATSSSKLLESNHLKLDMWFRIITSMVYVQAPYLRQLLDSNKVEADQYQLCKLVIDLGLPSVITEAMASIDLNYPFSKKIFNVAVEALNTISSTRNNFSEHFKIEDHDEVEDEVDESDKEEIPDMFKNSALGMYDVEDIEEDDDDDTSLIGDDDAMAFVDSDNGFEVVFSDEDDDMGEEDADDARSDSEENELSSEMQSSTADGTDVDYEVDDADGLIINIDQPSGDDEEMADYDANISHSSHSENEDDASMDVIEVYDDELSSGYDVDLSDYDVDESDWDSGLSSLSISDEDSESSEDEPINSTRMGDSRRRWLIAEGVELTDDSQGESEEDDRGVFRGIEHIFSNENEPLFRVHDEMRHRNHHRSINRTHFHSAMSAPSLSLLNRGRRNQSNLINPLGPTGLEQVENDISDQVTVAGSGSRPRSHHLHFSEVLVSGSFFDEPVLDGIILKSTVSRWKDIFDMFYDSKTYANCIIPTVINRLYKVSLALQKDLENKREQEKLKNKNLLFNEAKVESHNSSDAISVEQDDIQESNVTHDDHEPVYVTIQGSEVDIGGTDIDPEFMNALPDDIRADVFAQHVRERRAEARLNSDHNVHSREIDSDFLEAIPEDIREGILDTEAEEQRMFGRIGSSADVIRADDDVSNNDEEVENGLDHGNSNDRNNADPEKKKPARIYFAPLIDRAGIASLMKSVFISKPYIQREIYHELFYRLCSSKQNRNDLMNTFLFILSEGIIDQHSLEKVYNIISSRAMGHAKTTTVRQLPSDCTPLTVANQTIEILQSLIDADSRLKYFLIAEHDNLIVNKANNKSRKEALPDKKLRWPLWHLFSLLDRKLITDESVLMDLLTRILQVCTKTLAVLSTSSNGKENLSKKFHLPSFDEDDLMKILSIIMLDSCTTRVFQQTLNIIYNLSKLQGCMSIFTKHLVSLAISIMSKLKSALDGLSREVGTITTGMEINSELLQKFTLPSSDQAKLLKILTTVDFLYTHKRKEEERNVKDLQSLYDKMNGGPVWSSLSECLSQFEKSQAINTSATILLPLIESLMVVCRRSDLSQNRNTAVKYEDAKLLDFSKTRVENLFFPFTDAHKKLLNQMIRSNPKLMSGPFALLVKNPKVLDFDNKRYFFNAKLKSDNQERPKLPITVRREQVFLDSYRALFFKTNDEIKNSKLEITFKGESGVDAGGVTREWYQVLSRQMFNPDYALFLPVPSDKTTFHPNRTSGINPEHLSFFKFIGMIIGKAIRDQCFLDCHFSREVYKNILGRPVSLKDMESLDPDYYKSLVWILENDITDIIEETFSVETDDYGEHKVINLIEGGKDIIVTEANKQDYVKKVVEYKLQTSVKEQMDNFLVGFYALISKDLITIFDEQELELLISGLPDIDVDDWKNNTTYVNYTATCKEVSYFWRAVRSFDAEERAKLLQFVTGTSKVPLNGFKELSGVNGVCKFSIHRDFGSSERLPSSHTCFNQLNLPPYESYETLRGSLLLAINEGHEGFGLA
3×HA-tagged ligase-dead Tom1 (^3×HATom1^CA, Cys3235Ala) (Q03280, form named): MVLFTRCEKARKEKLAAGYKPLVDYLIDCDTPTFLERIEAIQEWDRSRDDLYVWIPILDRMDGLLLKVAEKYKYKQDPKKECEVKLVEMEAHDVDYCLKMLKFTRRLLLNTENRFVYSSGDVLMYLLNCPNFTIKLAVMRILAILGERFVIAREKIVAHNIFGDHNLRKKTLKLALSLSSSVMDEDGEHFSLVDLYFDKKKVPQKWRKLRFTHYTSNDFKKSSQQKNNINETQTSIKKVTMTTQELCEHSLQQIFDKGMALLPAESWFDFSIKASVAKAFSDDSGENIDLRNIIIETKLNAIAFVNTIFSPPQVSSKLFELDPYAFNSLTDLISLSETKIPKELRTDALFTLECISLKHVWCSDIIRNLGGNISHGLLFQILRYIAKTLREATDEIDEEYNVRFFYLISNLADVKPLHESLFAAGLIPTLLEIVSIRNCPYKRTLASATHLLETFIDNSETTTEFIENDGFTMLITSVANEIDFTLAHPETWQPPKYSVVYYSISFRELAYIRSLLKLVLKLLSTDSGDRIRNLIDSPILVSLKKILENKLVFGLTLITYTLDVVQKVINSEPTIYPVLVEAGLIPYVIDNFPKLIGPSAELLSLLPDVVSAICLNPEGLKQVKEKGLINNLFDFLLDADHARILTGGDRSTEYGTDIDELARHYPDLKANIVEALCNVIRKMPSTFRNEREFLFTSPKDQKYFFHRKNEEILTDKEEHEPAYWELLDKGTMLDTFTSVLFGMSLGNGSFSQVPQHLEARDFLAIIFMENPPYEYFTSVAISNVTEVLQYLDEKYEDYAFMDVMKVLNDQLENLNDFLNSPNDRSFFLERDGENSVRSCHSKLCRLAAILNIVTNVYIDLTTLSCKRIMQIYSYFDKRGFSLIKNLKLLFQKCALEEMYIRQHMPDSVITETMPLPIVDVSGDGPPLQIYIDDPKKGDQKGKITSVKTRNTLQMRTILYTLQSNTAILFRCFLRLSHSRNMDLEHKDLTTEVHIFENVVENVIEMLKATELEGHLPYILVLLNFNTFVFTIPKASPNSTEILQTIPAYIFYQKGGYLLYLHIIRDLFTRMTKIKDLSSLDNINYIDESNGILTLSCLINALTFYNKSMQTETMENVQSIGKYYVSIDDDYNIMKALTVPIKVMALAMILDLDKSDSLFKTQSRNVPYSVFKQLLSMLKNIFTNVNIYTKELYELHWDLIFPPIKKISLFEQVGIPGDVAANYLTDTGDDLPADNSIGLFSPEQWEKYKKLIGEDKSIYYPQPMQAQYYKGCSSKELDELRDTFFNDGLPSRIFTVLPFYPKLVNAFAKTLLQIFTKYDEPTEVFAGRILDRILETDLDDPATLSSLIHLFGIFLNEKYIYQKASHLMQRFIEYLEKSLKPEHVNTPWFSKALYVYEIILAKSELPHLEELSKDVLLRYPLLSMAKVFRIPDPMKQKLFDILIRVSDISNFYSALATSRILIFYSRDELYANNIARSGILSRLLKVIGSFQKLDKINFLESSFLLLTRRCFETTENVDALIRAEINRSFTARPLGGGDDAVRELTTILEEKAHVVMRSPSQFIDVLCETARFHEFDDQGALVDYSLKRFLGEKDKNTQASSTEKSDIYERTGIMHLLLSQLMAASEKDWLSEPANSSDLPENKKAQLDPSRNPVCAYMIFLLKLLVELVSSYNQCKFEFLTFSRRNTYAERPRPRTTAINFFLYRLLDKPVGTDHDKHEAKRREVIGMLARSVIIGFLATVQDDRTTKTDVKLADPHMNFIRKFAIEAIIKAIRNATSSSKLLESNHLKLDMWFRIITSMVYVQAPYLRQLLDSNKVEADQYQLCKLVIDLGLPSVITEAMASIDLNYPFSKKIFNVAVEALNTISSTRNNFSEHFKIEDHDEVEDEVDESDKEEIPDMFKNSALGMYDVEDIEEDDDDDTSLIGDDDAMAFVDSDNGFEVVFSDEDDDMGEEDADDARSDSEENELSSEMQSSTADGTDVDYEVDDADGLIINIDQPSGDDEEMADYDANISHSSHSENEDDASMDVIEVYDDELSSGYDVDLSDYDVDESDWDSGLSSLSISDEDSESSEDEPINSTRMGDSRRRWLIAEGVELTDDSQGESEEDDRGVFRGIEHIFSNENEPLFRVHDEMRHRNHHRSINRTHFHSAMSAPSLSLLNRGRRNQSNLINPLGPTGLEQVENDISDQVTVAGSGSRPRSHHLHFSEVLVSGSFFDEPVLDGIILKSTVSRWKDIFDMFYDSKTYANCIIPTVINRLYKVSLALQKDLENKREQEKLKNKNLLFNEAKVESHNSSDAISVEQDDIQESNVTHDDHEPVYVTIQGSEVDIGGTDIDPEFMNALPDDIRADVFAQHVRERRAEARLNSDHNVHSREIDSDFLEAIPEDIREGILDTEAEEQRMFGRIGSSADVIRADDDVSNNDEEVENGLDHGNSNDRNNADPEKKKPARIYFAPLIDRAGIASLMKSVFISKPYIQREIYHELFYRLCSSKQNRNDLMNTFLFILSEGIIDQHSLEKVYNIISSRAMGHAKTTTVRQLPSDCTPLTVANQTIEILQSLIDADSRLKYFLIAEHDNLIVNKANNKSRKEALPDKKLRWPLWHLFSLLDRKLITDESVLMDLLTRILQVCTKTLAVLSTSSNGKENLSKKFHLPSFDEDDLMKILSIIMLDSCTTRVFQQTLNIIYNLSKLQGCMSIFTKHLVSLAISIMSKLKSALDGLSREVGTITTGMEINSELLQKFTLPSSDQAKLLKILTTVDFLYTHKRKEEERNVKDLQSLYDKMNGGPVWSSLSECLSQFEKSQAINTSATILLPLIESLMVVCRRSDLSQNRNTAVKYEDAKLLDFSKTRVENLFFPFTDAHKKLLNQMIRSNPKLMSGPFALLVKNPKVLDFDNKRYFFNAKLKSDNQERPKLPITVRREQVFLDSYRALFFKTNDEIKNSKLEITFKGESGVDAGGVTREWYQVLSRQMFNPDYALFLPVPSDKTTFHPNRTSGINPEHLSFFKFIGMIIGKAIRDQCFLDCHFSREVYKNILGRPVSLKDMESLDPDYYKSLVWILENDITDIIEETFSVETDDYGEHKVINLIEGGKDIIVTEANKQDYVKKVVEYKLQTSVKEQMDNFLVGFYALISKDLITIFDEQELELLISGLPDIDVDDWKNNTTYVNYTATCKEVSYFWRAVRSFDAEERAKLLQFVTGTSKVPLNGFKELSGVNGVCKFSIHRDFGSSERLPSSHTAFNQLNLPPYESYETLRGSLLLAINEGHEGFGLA

Columns and labels:
[1] = molecular target: 3×HA-tagged Tom1 (^3×HATom1) (S. cerevisiae) (UniProt Q03280); assay: co-IP; cells treated with bortezomib for 30 min after galactose induction of Rpl26a^FLAG, lysed and fractionated on a sucrose gradient; immunoprecipitation from the low MW (non-ribosomal) fractions
[2] = molecular target: 3×HA-tagged ligase-dead Tom1 (^3×HATom1^CA, Cys3235Ala) (S. cerevisiae) (UniProt Q03280); assay: as above
[3] = molecular target: 3×HA-tagged Tom1 (^3×HATom1) (S. cerevisiae) (UniProt Q03280); assay: co-IP; anti-HA immunoprecipitates from lysates of yeast cells expressing ^3×HATom1 or ^3×HATom1^CA and galactose-induced Rpl26a^FLAG (wild type or 4E), in some experiments after bortezomib; immunoblot with anti-HA and anti-FLAG
[4] = molecular target: 3×HA-tagged ligase-dead Tom1 (^3×HATom1^CA, Cys3235Ala) (S. cerevisiae) (UniProt Q03280); assay: as above

| binding [1] | binding [2] | binding [3] | binding [4] | Substance |
| --- | --- | --- | --- | --- |
| binds | binds | binds | binds | Rpl26a tagged with a FLAG epitope (Rpl26a^FLAG) (from UniProt P05743 1-127) |
|  |  | binds weakly |  | Rpl26a-4E^FLAG (R12E, R13E, R16E, K17E) (from UniProt P05743 1-127) |
